Data: the supplement of paper PMC6411743
± gives the standard deviation of the averaged measurements. Some of the results follow.

Sequences of proteins named here, by UniProt entry; tags and fusion partners are left off. A change or cut given only in a name is not applied to a line headed by its entry.
UniProt Q15149: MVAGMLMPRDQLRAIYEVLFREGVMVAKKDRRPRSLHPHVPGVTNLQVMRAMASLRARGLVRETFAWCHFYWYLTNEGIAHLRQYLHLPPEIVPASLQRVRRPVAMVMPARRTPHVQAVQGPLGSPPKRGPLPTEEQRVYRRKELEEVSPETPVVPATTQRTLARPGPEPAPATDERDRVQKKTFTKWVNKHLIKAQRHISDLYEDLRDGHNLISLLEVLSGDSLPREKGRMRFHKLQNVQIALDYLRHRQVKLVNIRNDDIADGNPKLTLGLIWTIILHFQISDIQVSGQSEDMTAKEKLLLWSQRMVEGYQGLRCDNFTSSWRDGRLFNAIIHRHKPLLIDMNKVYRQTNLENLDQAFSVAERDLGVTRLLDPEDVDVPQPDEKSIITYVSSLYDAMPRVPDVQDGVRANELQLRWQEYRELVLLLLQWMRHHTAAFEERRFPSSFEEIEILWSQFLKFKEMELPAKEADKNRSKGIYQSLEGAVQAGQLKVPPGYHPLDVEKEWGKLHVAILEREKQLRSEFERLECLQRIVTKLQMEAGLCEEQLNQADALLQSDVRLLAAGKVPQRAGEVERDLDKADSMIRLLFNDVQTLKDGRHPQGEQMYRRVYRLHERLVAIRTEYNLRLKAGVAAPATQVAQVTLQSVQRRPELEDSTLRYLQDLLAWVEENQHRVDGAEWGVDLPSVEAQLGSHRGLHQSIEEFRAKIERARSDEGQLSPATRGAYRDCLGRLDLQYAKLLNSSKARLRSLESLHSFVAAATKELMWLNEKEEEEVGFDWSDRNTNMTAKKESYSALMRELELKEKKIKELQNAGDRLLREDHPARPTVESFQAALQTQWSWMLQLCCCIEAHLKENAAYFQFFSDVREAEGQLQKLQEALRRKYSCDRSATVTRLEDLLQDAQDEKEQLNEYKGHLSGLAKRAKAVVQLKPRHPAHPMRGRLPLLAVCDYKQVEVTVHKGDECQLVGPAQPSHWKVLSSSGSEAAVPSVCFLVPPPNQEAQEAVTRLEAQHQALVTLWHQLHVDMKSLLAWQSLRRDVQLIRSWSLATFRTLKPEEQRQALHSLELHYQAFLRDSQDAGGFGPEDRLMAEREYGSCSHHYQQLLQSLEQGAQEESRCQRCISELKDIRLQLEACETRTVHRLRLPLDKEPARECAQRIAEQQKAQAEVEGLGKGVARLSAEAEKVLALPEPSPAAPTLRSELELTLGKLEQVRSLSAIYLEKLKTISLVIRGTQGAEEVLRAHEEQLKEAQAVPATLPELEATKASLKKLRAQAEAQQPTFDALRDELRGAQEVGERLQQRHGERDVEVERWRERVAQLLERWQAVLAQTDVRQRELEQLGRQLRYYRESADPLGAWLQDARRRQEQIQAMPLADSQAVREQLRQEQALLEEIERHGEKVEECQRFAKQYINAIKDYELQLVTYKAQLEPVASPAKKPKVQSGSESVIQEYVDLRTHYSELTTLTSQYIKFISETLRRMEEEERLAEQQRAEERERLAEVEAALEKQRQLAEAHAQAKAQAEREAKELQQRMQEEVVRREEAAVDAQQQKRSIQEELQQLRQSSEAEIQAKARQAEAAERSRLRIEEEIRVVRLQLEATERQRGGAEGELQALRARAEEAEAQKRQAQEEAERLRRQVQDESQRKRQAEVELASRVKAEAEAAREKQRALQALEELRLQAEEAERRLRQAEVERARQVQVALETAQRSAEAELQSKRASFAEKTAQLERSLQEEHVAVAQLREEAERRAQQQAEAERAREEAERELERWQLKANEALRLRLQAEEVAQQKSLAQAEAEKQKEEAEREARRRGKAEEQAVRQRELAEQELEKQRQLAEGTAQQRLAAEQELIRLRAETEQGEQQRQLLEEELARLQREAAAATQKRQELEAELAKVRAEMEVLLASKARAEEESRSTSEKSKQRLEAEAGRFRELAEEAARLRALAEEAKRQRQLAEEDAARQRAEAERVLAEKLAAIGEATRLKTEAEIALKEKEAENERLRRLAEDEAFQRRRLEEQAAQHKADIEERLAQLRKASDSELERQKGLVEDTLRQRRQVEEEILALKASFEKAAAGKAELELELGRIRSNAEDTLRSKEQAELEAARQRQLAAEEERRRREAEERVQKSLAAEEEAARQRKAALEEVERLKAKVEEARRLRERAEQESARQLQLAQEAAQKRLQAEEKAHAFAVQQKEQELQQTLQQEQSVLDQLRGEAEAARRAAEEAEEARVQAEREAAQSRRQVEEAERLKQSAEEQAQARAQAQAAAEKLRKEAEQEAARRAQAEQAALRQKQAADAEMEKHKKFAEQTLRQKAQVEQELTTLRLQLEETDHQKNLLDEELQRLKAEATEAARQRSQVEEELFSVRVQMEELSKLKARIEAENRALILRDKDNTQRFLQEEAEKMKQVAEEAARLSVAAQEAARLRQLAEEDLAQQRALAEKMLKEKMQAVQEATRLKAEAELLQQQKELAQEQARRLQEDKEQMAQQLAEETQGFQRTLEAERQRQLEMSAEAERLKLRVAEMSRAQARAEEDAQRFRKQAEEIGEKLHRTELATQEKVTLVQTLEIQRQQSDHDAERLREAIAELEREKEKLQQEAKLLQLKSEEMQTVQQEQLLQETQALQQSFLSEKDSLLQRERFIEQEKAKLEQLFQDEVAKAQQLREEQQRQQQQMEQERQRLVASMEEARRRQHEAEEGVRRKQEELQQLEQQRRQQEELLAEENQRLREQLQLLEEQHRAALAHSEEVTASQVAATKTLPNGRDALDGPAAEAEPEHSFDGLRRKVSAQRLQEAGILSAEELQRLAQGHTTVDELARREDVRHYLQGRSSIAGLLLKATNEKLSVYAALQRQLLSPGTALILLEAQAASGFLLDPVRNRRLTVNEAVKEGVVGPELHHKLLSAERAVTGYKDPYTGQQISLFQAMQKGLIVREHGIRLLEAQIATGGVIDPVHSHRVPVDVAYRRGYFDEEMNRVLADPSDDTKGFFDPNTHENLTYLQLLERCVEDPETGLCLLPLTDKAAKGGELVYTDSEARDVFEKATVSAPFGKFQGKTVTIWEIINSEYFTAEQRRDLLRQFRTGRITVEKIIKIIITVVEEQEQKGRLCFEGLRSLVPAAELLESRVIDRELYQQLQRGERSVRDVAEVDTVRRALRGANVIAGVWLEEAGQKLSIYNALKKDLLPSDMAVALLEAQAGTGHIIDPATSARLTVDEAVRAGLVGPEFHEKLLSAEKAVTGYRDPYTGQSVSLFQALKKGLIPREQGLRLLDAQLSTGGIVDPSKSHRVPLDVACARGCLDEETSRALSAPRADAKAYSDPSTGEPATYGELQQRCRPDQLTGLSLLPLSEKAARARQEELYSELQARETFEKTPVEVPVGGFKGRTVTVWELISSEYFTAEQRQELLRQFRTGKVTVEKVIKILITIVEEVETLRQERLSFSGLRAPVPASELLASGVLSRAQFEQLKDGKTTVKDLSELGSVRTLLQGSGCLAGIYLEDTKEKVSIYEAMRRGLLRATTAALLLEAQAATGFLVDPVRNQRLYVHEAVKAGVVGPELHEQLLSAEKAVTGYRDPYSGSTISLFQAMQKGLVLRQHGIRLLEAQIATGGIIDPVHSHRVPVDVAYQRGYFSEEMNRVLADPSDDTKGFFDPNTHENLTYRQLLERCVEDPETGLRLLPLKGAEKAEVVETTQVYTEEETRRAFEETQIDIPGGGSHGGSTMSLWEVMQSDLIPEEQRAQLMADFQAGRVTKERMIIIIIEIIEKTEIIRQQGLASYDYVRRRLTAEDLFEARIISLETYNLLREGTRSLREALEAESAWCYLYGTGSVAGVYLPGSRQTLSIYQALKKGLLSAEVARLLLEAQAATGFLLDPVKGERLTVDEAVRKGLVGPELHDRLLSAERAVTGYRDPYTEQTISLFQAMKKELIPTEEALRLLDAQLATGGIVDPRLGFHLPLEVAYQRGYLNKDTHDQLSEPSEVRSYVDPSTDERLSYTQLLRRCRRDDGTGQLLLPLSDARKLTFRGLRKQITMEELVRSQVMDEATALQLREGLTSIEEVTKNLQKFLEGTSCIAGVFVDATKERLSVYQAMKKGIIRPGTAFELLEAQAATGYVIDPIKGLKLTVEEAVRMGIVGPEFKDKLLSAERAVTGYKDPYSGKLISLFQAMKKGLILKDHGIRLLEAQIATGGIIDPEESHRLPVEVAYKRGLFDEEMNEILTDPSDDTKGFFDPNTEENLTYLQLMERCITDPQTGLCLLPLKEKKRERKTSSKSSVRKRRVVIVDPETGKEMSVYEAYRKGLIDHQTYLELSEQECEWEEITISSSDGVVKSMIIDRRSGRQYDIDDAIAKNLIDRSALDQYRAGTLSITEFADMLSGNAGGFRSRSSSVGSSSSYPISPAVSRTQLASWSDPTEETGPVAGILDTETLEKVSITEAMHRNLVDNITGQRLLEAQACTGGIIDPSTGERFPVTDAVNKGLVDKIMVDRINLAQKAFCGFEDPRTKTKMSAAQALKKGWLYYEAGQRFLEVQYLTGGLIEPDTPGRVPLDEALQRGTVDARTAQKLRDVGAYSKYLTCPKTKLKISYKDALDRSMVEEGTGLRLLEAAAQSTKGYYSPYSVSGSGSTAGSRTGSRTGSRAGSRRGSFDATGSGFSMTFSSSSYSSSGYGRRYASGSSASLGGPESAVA
UniProt Q15742: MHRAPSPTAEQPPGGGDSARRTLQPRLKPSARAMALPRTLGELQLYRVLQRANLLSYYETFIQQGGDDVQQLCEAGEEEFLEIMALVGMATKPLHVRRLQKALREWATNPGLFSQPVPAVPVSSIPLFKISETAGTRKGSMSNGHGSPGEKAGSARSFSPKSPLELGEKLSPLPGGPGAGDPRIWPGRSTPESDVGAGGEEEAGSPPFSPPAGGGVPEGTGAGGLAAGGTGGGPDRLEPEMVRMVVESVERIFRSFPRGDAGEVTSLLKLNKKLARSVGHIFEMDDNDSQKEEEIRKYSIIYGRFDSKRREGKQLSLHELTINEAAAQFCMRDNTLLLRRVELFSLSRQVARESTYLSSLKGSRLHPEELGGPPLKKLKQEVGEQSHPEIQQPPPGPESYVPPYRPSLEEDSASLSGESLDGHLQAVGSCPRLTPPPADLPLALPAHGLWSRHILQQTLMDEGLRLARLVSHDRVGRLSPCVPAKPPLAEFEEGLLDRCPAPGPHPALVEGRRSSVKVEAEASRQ
UniProt Q53GQ0: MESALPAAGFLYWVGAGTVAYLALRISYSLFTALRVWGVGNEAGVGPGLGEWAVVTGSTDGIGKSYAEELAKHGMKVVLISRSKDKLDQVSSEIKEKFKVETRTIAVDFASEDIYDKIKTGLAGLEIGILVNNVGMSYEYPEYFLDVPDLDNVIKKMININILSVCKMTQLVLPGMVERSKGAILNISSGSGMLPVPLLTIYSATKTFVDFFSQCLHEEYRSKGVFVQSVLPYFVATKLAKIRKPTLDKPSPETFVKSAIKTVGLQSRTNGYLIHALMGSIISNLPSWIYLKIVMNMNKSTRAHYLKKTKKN
UniProt Q4VC31: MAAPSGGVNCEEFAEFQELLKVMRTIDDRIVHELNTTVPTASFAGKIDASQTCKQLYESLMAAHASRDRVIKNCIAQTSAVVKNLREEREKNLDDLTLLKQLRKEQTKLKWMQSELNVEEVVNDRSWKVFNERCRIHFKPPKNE
UniProt Q56NI9: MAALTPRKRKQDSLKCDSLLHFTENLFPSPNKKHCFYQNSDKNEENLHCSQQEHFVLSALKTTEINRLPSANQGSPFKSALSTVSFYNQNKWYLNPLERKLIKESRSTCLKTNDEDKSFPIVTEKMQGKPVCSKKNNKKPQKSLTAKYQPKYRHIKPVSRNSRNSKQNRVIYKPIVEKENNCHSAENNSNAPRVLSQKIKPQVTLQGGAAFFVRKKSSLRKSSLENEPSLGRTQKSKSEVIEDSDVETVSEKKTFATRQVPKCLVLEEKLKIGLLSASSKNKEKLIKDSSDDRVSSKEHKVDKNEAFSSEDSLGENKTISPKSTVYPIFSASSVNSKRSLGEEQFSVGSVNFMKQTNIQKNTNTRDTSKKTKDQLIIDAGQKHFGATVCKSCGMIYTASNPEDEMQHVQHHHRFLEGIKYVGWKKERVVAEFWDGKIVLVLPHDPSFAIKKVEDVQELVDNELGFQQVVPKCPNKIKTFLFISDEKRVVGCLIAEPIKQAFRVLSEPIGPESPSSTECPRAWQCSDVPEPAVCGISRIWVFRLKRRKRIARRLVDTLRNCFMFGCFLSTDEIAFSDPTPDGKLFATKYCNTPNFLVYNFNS
UniProt Q53H82: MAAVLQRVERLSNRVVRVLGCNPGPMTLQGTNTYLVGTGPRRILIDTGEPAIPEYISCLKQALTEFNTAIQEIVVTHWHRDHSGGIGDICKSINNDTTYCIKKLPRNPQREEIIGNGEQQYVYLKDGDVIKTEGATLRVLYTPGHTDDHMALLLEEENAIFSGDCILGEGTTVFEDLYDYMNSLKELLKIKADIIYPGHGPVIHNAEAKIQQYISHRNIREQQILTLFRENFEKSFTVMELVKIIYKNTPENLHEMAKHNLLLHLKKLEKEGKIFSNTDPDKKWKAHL

Compound: Nc1nc2c(ncn2[C@@H]2O[C@H](COP(=O)(O)OP(=O)(O)OP(=O)(O)O)[C@@H](O)[C@H]2O)c(=O)[nH]1 [guanosine triphosphate]
Experiment: NP40-soluble protein abundance relative to vehicle (solubility fold change) (ratio); higher = more soluble protein in presence of GTP
Method in brief: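 In three independent experiments, Jurkat crude lysate made by Dounce homogenisation was treated for 10 min at room temperature and then 3 min at 37 °C with eight concentrations ranging from 0.1 to 10 mM. It was then solubilised with 0.8% NP40 plus benzonase for 60 min at 4 °C and ultracentrifuged. The supernatant was TMT-labelled for LC-MS/MS, and each value is the fold change against the detergent-processed vehicle for the same replicate, using vsn-normalised intensities.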

Row | Target | NP40-soluble protein abundance (concentration: 0.1mM) | NP40-soluble protein abundance (concentration: 0.5mM) | NP40-soluble protein abundance (concentration: 1mM) | NP40-soluble protein abundance (concentration: 2mM) | NP40-soluble protein abundance (concentration: 4mM) | NP40-soluble protein abundance (concentration: 6mM) | NP40-soluble protein abundance (concentration: 8mM) | NP40-soluble protein abundance (concentration: 10mM)
1 | UniProt Q4J6C6 and related entries | 1.02 ± 0.045 | 1.02 ± 0.052 | 0.984 ± 0.041 | 0.964 ± 0.032 | 0.928 ± 0.039 | 0.937 ± 0.025 | 0.945 ± 0.013 | 0.887 ± 0.045
2 | TERF2 (UniProt Q15554) | 0.998 ± 0.058 | 1.05 ± 0.052 | 1.06 ± 0.055 | 1.07 ± 0.068 | 1.07 ± 0.057 | 1.1 ± 0.058 | 1.15 ± 0.085 | 1.14 ± 0.1
3 | UniProt Q5T8P6 and related entries | 1.02 ± 0.025 | 1.12 ± 0.058 | 1.12 ± 0.056 | 1.09 ± 0.058 | 1.07 ± 0.052 | 1.09 ± 0.044 | 1.11 ± 0.096 | 1.08 ± 0.074
4 | C5orf22 (UniProt Q49AR2) | 1.02 ± 0.078 | 0.998 ± 0.087 | 1.03 ± 0.14 | 0.967 ± 0.15 | 0.976 ± 0.14 | 0.952 ± 0.14 | 0.966 ± 0.096 | 0.946 ± 0.15
5 | FSCN1 (UniProt Q16658) | 1.11 ± 0.052 | 1.06 ± 0.017 | 1.07 ± 0.11 | 1.05 ± 0.024 | 1.05 ± 0.06 | 1.02 ± 0.052 | 1.03 ± 0.053 | 0.986 ± 0.037
6 | UniProt Q15149 and related entries | 1.06 ± 0.038 | 1.18 ± 0.042 | 1.27 ± 0.046 | 1.35 ± 0.036 | 1.42 ± 0.079 | 1.43 ± 0.083 | 1.48 ± 0.12 | 1.42 ± 0.098
7 | UniProt Q5JVF3 and related entries | 1.04 ± 0.047 | 1.04 ± 0.046 | 0.892 ± 0.019 | 0.916 ± 0.061 | 0.901 ± 0.059 | 0.939 ± 0.03 | 0.9 ± 0.023 | 0.902 ± 0.052
8 | UniProt Q15018 | 0.97 ± 0.051 | 0.965 ± 0.054 | 0.969 ± 0.064 | 0.942 ± 0.051 | 0.935 ± 0.045 | 0.973 ± 0.054 | 0.952 ± 0.057 | 0.942 ± 0.07
9 | UniProt Q14746 and related entries | 1.03 ± 0.031 | 0.998 ± 0.027 | 1.08 ± 0.045 | 1.07 ± 0.045 | 1.09 ± 0.035 | 1.12 ± 0.068 | 1.12 ± 0.1 | 1.13 ± 0.076
10 | NOL9 (UniProt Q5SY16) | 1.02 ± 0.08 | 1.05 ± 0.15 | 1.03 ± 0.08 | 1.07 ± 0.12 | 1.03 ± 0.059 | 1.05 ± 0.071 | 1.09 ± 0.099 | 1.12 ± 0.056
11 | HERC1 (UniProt Q15751) | 1.12 ± 0.11 | 1.13 ± 0.14 | 1.11 ± 0.099 | 1.12 ± 0.12 | 1.15 ± 0.2 | 1.13 ± 0.15 | 1.17 ± 0.23 | 1.08 ± 0.15
12 | UniProt Q15742 and related entries | 1.02 ± 0.044 | 1.06 ± 0.015 | 1.03 ± 0.15 | 1.03 ± 0.15 | 0.998 ± 0.17 | 1.02 ± 0.14 | 0.972 ± 0.09 | 0.985 ± 0.043
13 | WTAP (UniProt Q15007) | 1.02 ± 0.016 | 1.05 ± 0.028 | 1.13 ± 0.033 | 1.13 ± 0.064 | 1.08 ± 0.14 | 1.14 ± 0.094 | 1.19 ± 0.034 | 1.25 ± 0.14
14 | IFI16 (UniProt Q16666) | 1.06 ± 0.013 | 1.145 ± 0.0098 | 1.14 ± 0.013 | 1.22 ± 0.019 | 1.27 ± 0.05 | 1.33 ± 0.047 | 1.34 ± 0.1 | 1.29 ± 0.063
15 | HSD17B12 (UniProt Q53GQ0) | 0.955 ± 0.068 | 1.02 ± 0.075 | 0.879 ± 0.028 | 0.928 ± 0.074 | 0.855 ± 0.075 | 0.926 ± 0.083 | 0.826 ± 0.048 | 0.87 ± 0.067
16 | UniProt Q14814 and related entries | 0.947 ± 0.02 | 0.979 ± 0.035 | 0.975 ± 0.021 | 0.987 ± 0.081 | 0.931 ± 0.092 | 0.959 ± 0.11 | 0.935 ± 0.052 | 1.05 ± 0.082
17 | UniProt Q15717 and related entries | 0.9635 ± 0.0076 | 0.9876 ± 0.0098 | 0.933 ± 0.011 | 0.941 ± 0.027 | 0.941 ± 0.036 | 0.949 ± 0.03 | 0.924 ± 0.025 | 0.92 ± 0.016
18 | UniProt Q53F19 | 0.981 ± 0.061 | 0.94 ± 0.12 | 1.03 ± 0.13 | 1.04 ± 0.094 | 1.06 ± 0.06 | 1.11 ± 0.082 | 1.15 ± 0.071 | 1.19 ± 0.054
19 | RSU1 (UniProt Q15404) | 0.937 ± 0.047 | 0.941 ± 0.027 | 0.97 ± 0.013 | 0.941 ± 0.024 | 0.915 ± 0.031 | 0.932 ± 0.02 | 0.882 ± 0.04 | 0.925 ± 0.01
20 | MVP (UniProt Q14764) | 0.999 ± 0.019 | 1.03 ± 0.087 | 1.06 ± 0.081 | 1.14 ± 0.12 | 1.29 ± 0.34 | 1.12 ± 0.3 | 1.06 ± 0.19 | 1.02 ± 0.23
21 | CCDC58 (UniProt Q4VC31) | 0.925 ± 0.075 | 0.884 ± 0.1 | 0.952 ± 0.049 | 0.888 ± 0.068 | 0.866 ± 0.097 | 0.887 ± 0.099 | 0.918 ± 0.086 | 0.934 ± 0.02
22 | VPS26B (UniProt Q4G0F5) | 1.04 ± 0.079 | 1.01 ± 0.12 | 0.89 ± 0.11 | 0.953 ± 0.13 | 0.954 ± 0.077 | 0.869 ± 0.09 | 0.8173 ± 0.0071 | 0.822 ± 0.077
23 | UniProt Q56NI9 and related entries | 1.05 ± 0.12 | 1.06 ± 0.056 | 0.9483 ± 0.0077 | 0.9853 ± 0.0096 | 1.09 ± 0.16 | 1.02 ± 0.051 | 1.03 ± 0.056 | 1.01 ± 0.013
24 | UniProt Q14789 and related entries | 1 ± 0.019 | 0.984 ± 0.041 | 1.02 ± 0.022 | 0.989 ± 0.049 | 0.993 ± 0.026 | 1 ± 0.035 | 1.02 ± 0.046 | 1.01 ± 0.051
25 | UniProt Q14CB8 and related entries | 1.1 ± 0.089 | 1.111 ± 0.011 | 1.13 ± 0.045 | 1.23 ± 0.044 | 1.26 ± 0.053 | 1.23 ± 0.11 | 1.27 ± 0.11 | 1.23 ± 0.1
26 | SF3B3 (UniProt Q15393) | 1.07 ± 0.024 | 1.12 ± 0.063 | 1.09 ± 0.079 | 1.13 ± 0.12 | 1.18 ± 0.13 | 1.18 ± 0.13 | 1.15 ± 0.11 | 1.13 ± 0.099
27 | TRIP13 (UniProt Q15645) | 1.07 ± 0.076 | 1.06 ± 0.11 | 0.923 ± 0.054 | 0.971 ± 0.085 | 0.943 ± 0.072 | 0.935 ± 0.065 | 0.883 ± 0.048 | 0.862 ± 0.044
28 | LACTB2 (UniProt Q53H82) | 1.05 ± 0.02 | 1.02 ± 0.042 | 0.978 ± 0.075 | 0.955 ± 0.069 | 0.948 ± 0.052 | 0.933 ± 0.095 | 0.978 ± 0.052 | 0.91 ± 0.095
29 | UniProt Q5JTJ3 and related entries | 0.93 ± 0.04 | 0.986 ± 0.089 | 1.03 ± 0.098 | 0.988 ± 0.15 | 0.96 ± 0.083 | 0.977 ± 0.11 | 1 ± 0.054 | 1.13 ± 0.094
30 | NCOA6 (UniProt Q14686) | 1.05 ± 0.064 | 1.03 ± 0.042 | 1.06 ± 0.016 | 1.09 ± 0.063 | 1.07 ± 0.061 | 1.1 ± 0.03 | 1.13 ± 0.082 | 1.1 ± 0.025

2 entries drawn at random from those above, as already listed:
Row | Target | NP40-soluble protein abundance (concentration: 0.1mM) | NP40-soluble protein abundance (concentration: 0.5mM) | NP40-soluble protein abundance (concentration: 1mM) | NP40-soluble protein abundance (concentration: 2mM) | NP40-soluble protein abundance (concentration: 4mM) | NP40-soluble protein abundance (concentration: 6mM) | NP40-soluble protein abundance (concentration: 8mM) | NP40-soluble protein abundance (concentration: 10mM)
11 | HERC1 (UniProt Q15751) | 1.12 ± 0.11 | 1.13 ± 0.14 | 1.11 ± 0.099 | 1.12 ± 0.12 | 1.15 ± 0.2 | 1.13 ± 0.15 | 1.17 ± 0.23 | 1.08 ± 0.15
10 | NOL9 (UniProt Q5SY16) | 1.02 ± 0.08 | 1.05 ± 0.15 | 1.03 ± 0.08 | 1.07 ± 0.12 | 1.03 ± 0.059 | 1.05 ± 0.071 | 1.09 ± 0.099 | 1.12 ± 0.056
